# Values joined by “and” are separate entries in the source; they are usually repeats but may differ in a detail not shown here. Equal entries are not always repeated. About 910 (0.23%) of roughly 390,000 compounds were called active. The shares of active, inactive and inconclusive entries below differ from those in the screen. Calls come from the whole dose curve; as a rule, active = well fitted inhibition curve with a large enough effect; inconclusive = small, poorly fitted or top-dose-only effect; inactive = no such curve, though single readings can be large or run the other way. A potency beside an inconclusive call is a rough fit, not a confirmed value.
# Amino acid sequences for entries named in this document (tags omitted). A change or cut given only in a name is not applied to a line headed by its entry.
# UniProt O94782: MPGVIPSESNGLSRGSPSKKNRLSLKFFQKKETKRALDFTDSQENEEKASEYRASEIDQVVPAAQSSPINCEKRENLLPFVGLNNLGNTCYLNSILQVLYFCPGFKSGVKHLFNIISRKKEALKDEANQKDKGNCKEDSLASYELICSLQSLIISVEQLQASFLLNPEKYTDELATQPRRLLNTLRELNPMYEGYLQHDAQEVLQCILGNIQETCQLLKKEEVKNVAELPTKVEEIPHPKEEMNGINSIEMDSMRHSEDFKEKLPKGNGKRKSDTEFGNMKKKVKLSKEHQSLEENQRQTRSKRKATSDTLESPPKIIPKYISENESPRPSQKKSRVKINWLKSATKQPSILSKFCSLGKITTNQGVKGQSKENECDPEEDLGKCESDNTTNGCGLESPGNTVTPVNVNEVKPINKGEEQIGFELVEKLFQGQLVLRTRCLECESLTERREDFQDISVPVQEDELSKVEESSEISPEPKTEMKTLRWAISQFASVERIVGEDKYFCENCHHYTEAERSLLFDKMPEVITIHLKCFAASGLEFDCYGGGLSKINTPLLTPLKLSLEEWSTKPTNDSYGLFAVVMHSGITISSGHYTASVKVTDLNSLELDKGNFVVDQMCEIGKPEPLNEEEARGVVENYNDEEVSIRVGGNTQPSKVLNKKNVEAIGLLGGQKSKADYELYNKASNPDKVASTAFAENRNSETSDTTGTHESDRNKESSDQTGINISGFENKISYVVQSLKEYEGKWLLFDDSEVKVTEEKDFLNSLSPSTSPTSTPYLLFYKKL
# Target: Ubiquitin carboxyl-terminal hydrolase 1 (Homo sapiens) (UniProt O94782)
# Assay: Inhibitors of USP1/UAF1: Primary Screen; note: nearly all actives have a fitted effect of over 60% in size
# Settings: recombinant USP1/UAF1, Ub-Rhodamine cleavage fluorescence; series mostly up to 57.1 µM
# Procedure, shortened: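 1 nM enzyme complex + cpd, 15 min RT; start with Ub-Rho 150nM final; kinetic fluorescence ex 480/em 540, 6 reads q60 s. Buffer 50mM HEPES pH 7.8, 0.5mM EDTA, 0.1 mg/ml BSA, 1mM TCEP, 0.01% Tween-20.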
# Potency is the fitted concentration of half-maximal effect.
row,SMILES,Potency
1,COC(=O)c1ccccc1NC(=O)CCCN1C(=O)C(c2ccccc2)Oc2cccnc21 (stereo not given),"inconclusive: 39.8 µM [inhibitor, partial curve, poor fit]"
2,O=C(c1ccccc1F)N1CCC(c2nc3c(nnn3Cc3cccc(F)c3)c(=O)[nH]2)CC1,"inconclusive: 2.82 µM [inhibitor, full curve]"
3,C/C(=N\NC(=O)c1ccc(C)cc1C)c1ccc2c(c1)OCO2,inactive
4,C[C@H]1CN([C@@H](C)CO)S(=O)(=O)c2ccc(Br)cc2O[C@H]1CN(C)Cc1ccccc1F,"inconclusive: 0.794 µM [inhibitor, full curve]"
5,COc1ncccc1-c1nnn(-c2ccc(Cl)nc2)n1,"inconclusive: 0.251 µM [inhibitor, full curve, poor fit]"
6,CCOC(=O)C1CCN(C(=O)CCc2c(C)nc3cc(-c4ccccc4)nn3c2C)CC1,"inconclusive: 1.78 µM [inhibitor, partial curve, poor fit]"
7,O=C(Nc1nccs1)c1cccc(N2C(=O)c3cccc4c([N+](=O)[O-])ccc(c34)C2=O)c1,inactive
8,CSCCC(NS(=O)(=O)c1ccc2c(c1)oc(=O)n2C)C(=O)NCc1ccc(F)cc1 (stereo not given),"inconclusive: 3.55 µM [inhibitor, full curve, poor fit]"
9,COc1ccc(-n2cc(C(=O)N(C)c3cc(C)ccc3OC)c3ccccc3c2=O)cc1,inactive
10,CN(C)c1ccc(N/C=C/C(=O)c2ccco2)cc1,"inconclusive: 44.7 µM [inhibitor, partial curve, poor fit]"
11,CC(=O)c1cccc2c(O)c(C3=Nc4ccccc4C3=O)[nH]c12,"inconclusive: 31.6 µM [inhibitor, partial curve]"
12,Cc1ccc(NC2=C(NC(=O)c3ccccc3)C(=O)c3ccccc3C2=O)cc1Cl,"inconclusive: 25.1 µM [inhibitor, partial curve]"
13,CCC(C)(C)NC(=O)C(c1cccs1)N(CC1CCCO1)C(=O)Cn1nnc2ccccc21 (stereo not given),inactive
14,COc1ccc(C)cc1NS(=O)(=O)c1c(C)nc2sc(C)cn2c1=O,"inconclusive: 126 µM [inhibitor, partial curve, poor fit]"
15,CCOC(=O)C1C(c2ccccc2)C(C(=O)OCC)C1c1ccccc1 (stereo not given),"inconclusive: 5.01 µM [inhibitor, partial curve]"
16,O=C(NCc1ccccc1)C(c1cccnc1)N(C(=O)c1csnn1)c1ccc(F)cc1 (stereo not given),"inconclusive: 44.7 µM [inhibitor, partial curve, poor fit]"
17,COc1cc(/C=C/C(=O)OCC(=O)Nc2sc3c(c2C#N)CCC(C)C3)ccc1OCC#N (stereo not given),"inconclusive: 28.2 µM [inhibitor, single point]"
18,COc1ccc(-c2cn3cccnc3n2)cc1NC(=O)Nc1cc(C)ccc1C,"inconclusive: 35.5 µM [inhibitor, partial curve, poor fit]"
19,COC(=O)c1cc(CSc2nc3ccc(C)cc3[nH]2)oc1C,inactive
20,O=C(Cn1ncc2c3ccccc3n(Cc3cccc(Cl)c3)c2c1=O)NCCCN1CCCCC1,"inconclusive: 35.5 µM [inhibitor, partial curve]"

# An excerpt of these results, tab-delimited:
row	SMILES	Potency
11	CC(=O)c1cccc2c(O)c(C3=Nc4ccccc4C3=O)[nH]c12	inconclusive: 31.6 µM [inhibitor, partial curve]
14	COc1ccc(C)cc1NS(=O)(=O)c1c(C)nc2sc(C)cn2c1=O	inconclusive: 126 µM [inhibitor, partial curve, poor fit]
15	CCOC(=O)C1C(c2ccccc2)C(C(=O)OCC)C1c1ccccc1 (stereo not given)	inconclusive: 5.01 µM [inhibitor, partial curve]

# The listing continues:

row,SMILES,Potency
1,Cn1c(SCC(=O)c2cc(Cl)c(Cl)s2)nnc1-c1ccco1,inactive
2,Cc1ccc2nc(NNC(=O)c3ccc(S(=O)(=O)N4CCc5ccccc5C4)cc3)sc2c1,"inconclusive: 39.8 µM [inhibitor, single point]"
3,C=CCn1c(O)c(/C=C2\C=NN=C2c2ccccc2)sc1=S,inactive
4,CCOC(=O)N1CCc2c(sc3c2c(=O)n(-c2ccc(F)cc2)c(=O)n3CC(=O)c2ccc(Cl)cc2)C1,"inconclusive: 14.1 µM [inhibitor, single point]"
5,CCOC(=O)Nc1ccc2c(c1)N(C(=O)CNC)c1ccccc1CC2,inactive
6,CCOC(=O)C(C)Sc1nnc(-c2ccccc2O)n1Cc1ccccc1 (stereo not given),"inconclusive: 79.4 µM [inhibitor, partial curve, poor fit]"
7,COC(=O)[C@@]12CCCN1[C@H](c1ccc(-c3ccc4c(c3)OCO4)c(OC)c1)[C@H]1C(=O)N(C)C(=O)[C@H]12,"inconclusive: 3.16 µM [inhibitor, full curve, poor fit]"
8,COc1ccc(OC)c(NC(=O)Cn2ccn(-c3ccc(OC)c(OC)c3)c(=O)c2=O)c1,"inconclusive: 4.47 µM [inhibitor, partial curve]"
9,CCOC(=O)N1CCN(C(=O)C2CCN(C(=O)Nc3ccccc3)CC2)CC1,"inconclusive: 5.01 µM [inhibitor, full curve, poor fit]"
10,CCn1cc(C(=O)NC(=S)Nc2ccccc2[N+](=O)[O-])cn1,inactive
11,COC(=O)[C@@]12CCCN1[C@H](c1ccc(-c3ccc(Cl)c(Cl)c3)cc1)[C@H]1C(=O)N(C)C(=O)[C@H]12,"inconclusive: 44.7 µM [inhibitor, partial curve]"
12,O=C(/C=C(\c1ccc(Cl)cc1)n1cncn1)c1ccc(Cl)cc1,"inconclusive: 7.94 µM [inhibitor, partial curve, poor fit]"
13,CCOC(=O)c1cc(-c2ccc(OC)c(S(=O)(=O)NCc3ccccc3Cl)c2)on1,"inconclusive: 44.7 µM [inhibitor, partial curve, poor fit]"
14,Cc1ccc(S(=O)(=O)Nc2ccc(O)c3ccccc23)c(C)c1,"inconclusive: 31.6 µM [inhibitor, single point]"
15,NC(=O)CC[C@@H]1NC(=O)[C@@H]2CCCN2C(=O)c2cc([N+](=O)[O-])cc(I)c2NCCCC[C@@H](C(=O)NC(CC(=O)O)C(N)=O)NC1=O (stereo not given in full),"inconclusive: 89.1 µM [inhibitor, partial curve, poor fit]"
16,CCc1ccc(-n2c(O)cnc2Nc2nc(C)cc(C)n2)cc1,"inconclusive: 35.5 µM [inhibitor, partial curve, poor fit]"
17,CC(C)c1ccc(C2=CC(c3cccc(Cl)c3)n3c(nc4ccccc43)N2)cc1 (stereo not given),"inconclusive: 70.8 µM [inhibitor, partial curve, poor fit]"
18,O=C1CN(C(=O)c2cc(F)cc(F)c2)c2ccccc2N1,"inconclusive: 7.94 µM [inhibitor, single point]"
19,CCOC(=O)N1CC(C)N(C(=S)Nc2ccccc2)CC1C (stereo not given),"inconclusive: 50.1 µM [inhibitor, partial curve, poor fit]"
20,CCOc1ccc(NC(=O)CN2C(=O)C(c3ccc(Cl)cc3)=NC2(C)C)cc1,"inconclusive: 63.1 µM [inhibitor, single point]"

row,SMILES,Potency
1,COc1ccc(OC)c(C2Nc3c(C)cc(C)cc3-c3cc(C)nn32)c1 (stereo not given),"inconclusive: 1.12 µM [inhibitor, full curve, poor fit]"
2,CCc1c(C)sc2c1CCN(C(=O)Nc1ccccc1C(=O)OC)C2c1ccc(OC)cc1 (stereo not given),"inconclusive: 5.62 µM [inhibitor, partial curve]"
3,C=CCC[C@H](Cc1ccc(F)cc1)C(=O)OC[C@H](C)NC(=O)[C@H](CC=C)CC(=O)NCCO,"inconclusive: 7.94 µM [inhibitor, partial curve]"
4,COc1ccc(C)cc1NC(=O)c1c2c(nc3ccccc13)C(=O)N(C1CCCCC1)C2,"inconclusive: 112 µM [inhibitor, partial curve, poor fit]"
5,C=C(C)C(=O)Oc1ccc(N2C(=O)[C@@H]3C4C=CC(C4)[C@@H]3C2=O)cc1,"inconclusive: 0.562 µM [inhibitor, full curve, poor fit]"
6,CC(C)Oc1ccc(CNC(=O)c2ccc3c(c2)nc2n3CCCCC2)cc1,"inconclusive: 0.398 µM [inhibitor, full curve]"
7,Cc1ccccc1OCC(=O)Nc1nnc(S(=O)(=O)N2CCCC2)s1,"inconclusive: 5.01 µM [inhibitor, partial curve] and inconclusive: 794 nM [inhibitor, full curve]"
8,O=C(c1ccc(CS(=O)(=O)c2ccc(Br)cc2)o1)N1CCCC1,"inconclusive: 0.708 µM [inhibitor, full curve, poor fit]"
9,CCOc1ccccc1NC(=O)Cn1ncc2c([nH]c3ccccc32)c1=O,inactive
10,Clc1ccc(-c2ccnc(-n3cccc3)n2)s1,"inconclusive: 20 µM [inhibitor, partial curve]"
11,CCCc1ccc(S(=O)(=O)N2CCC(c3nnc(-c4cccc(C)c4)o3)CC2)cc1,"inconclusive: 7.94 µM [inhibitor, single point]"
12,COc1cc(OC)c(NC(=O)c2c(N3CCCC3=O)c3cc(C)ccc3n2C)cc1Cl,"inconclusive: 44.7 µM [inhibitor, partial curve, poor fit]"
13,C=CCn1c(C)cc(C(=O)COC(=O)c2ccc3c(c2)NC(=O)CS3)c1C,inactive
14,N#CCCN1CCN(C(=S)c2ccc(-c3cccc(Cl)c3)o2)CC1,inactive
15,CCOC(=O)CSc1cc(CS(=O)c2ccc(Cl)cc2)nc(-c2ccccc2)n1 (stereo not given),"inconclusive: 22.4 µM [inhibitor, single point]"
16,CCc1ccccc1Nc1ncnc2ccccc12,inactive
17,COc1ccc(/C=N/NC(=O)CCC(=O)Nc2ccccc2)cc1OC,inactive
18,Cc1ccc(S(=O)(=O)C2(C(=O)Nc3cccc(F)c3)CC2)cc1,"inconclusive: 39.8 µM [inhibitor, partial curve, poor fit]"
19,CC(=O)Nc1ccc2nc(SCC(=O)O)sc2c1,inactive
20,COc1cc(CCc2ccccc2)c(C(=O)O)c(O)c1C/C=C(/C)CCC=C(C)C,"inconclusive: 31.6 µM [inhibitor, single point]"

# 2 entries from above in another layout.
row	SMILES	Potency
11	CCCc1ccc(S(=O)(=O)N2CCC(c3nnc(-c4cccc(C)c4)o3)CC2)cc1	inconclusive: 7.94 µM [inhibitor, single point]
12	COc1cc(OC)c(NC(=O)c2c(N3CCCC3=O)c3cc(C)ccc3n2C)cc1Cl	inconclusive: 44.7 µM [inhibitor, partial curve, poor fit]
